According to article PMC6748156:
These are yes or no findings as the source states them, for the method shown. Binding seen in cells or lysates may run through a third protein. Some results given as binding are weak or reduced against the parent protein; the word gives no strength.

Amino acid sequences for entries named in this document (tags omitted).
UniProt Q8N9U0: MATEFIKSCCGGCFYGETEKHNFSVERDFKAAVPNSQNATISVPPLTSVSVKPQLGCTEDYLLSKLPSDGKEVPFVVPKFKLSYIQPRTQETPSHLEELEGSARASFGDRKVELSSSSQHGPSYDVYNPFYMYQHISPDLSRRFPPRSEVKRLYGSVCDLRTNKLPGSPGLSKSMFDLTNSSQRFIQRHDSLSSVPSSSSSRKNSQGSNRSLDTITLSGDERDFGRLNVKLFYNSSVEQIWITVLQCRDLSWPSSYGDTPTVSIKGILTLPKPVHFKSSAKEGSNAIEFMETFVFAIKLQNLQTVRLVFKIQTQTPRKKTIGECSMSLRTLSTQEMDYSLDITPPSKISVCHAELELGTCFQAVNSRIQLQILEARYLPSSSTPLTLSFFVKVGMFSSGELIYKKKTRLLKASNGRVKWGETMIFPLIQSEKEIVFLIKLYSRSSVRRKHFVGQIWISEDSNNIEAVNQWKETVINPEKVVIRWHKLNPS

Key:
[1] = target: p53, endogenous in H460 cells (wild-type p53) (human (endogenous in H460)) (UniProt P04637); experiment: co-IP; lysates of H460 negative control or TC2N shRNA cells treated with 20 µM MG132 for 24 h, precipitated with anti-p53 antibody, Pierce Co-IP Kit, western blot
[2] = target: Flag-tagged wild-type full-length TC2N (Tac2-N) (human) (UniProt Q8N9U0); experiment: co-IP; lysates of A549 vector control or TC2N cells precipitated with anti-Flag antibody (normal IgG as negative control), Pierce Co-IP Kit, western blot

Substance | binding [1] | binding [2]
cyclin-dependent kinase 5 (Cdk5), endogenous in H460 cells (from UniProt Q00535 1-292) (enzyme) | binds | –
p53, endogenous in A549 cells (from UniProt P04637 1-393) | – | binds
